Taken from: PubChem BioAssay AID1224830 (NIAID, 2016)

Test: 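Genes whose knock-down alters the TNF-alpha reporter response to LPS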 (primary screen)
Cell system: human THP-1 monocytic leukaemia cells, TNF dual-luciferase reporter clone, PMA-differentiated to macrophage-like cells
Reagents: siRNA pool against human genes, 50 nM
Duration: LPS for 4 h, given about 3 days after siRNA transfection
Conditions: bacterial LPS (TLR4 ligand), 10 ng/ml
Measurement: 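Ratio of firefly to renilla light, scaled to the plate median and expressed as a robust z-score per replicate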
Reading the numbers: TNF reporter robust z-score: higher = stronger TNF reporter response to LPS
Call rule: 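a well is active when its z-score exceeds 2.8 or falls below -1.5; control wells carry no call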
The deposit covers about 18,000 reagents; below is a part drawn at random. About 2,900 of them (16%) count as active. 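Calls are made per well; low scores hint the gene aids the LPS response, high scores that it dampens it.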 Unmarked entries are inactive. Repeated entries: four replicate wells of each siRNA pool. Reagent sequences are not shown.

| gene symbol | PubChem SID | TNF reporter robust z-score |
| --- | --- | --- |
| CYB5R3 (GeneID 1727) | SID315448305 | -1.21 |
| CYB5R3 (GeneID 1727) | SID315448305 | -0.92 |
| CYB5R3 (GeneID 1727) | SID315448305 | -0.87 |
| SERPINA9 (GeneID 327657) | SID315463947 | 0.23 |
| SERPINA9 (GeneID 327657) | SID315463947 | -1.02 |
| SERPINA9 (GeneID 327657) | SID315463947 | -0.53 |
| SERPINA9 (GeneID 327657) | SID315463947 | 0.04 |
| ZNF268 (GeneID 10795) | SID315454367 | -0.54 |
| ZNF268 (GeneID 10795) | SID315454367 | 0.26 |
| ZNF268 (GeneID 10795) | SID315454367 | -0.2 |
| ZNF268 (GeneID 10795) | SID315454367 | 0.41 |
| SBF2 (GeneID 81846) | SID315459955 | -1.41 |
| SBF2 (GeneID 81846) | SID315459955 | -1.35 |
| SBF2 (GeneID 81846) | SID315459955 | -0.78 |
| SBF2 (GeneID 81846) | SID315459955 | -0.92 |
| SPATA12 (GeneID 353324) | SID315464289 | -1.53 (active) |
| SPATA12 (GeneID 353324) | SID315464289 | -0.98 |
| SPATA12 (GeneID 353324) | SID315464289 | -1.74 (active) |
| SPATA12 (GeneID 353324) | SID315464289 | -0.68 |
| MFAP2 (GeneID 4237) | SID315449951 | 0.55 |
| MFAP2 (GeneID 4237) | SID315449951 | -0.68 |
| MFAP2 (GeneID 4237) | SID315449951 | 0.29 |
| MFAP2 (GeneID 4237) | SID315449951 | 2.49 |
| SKIC8 (GeneID 80349) | SID315459770 | -1.77 (active) |
| SKIC8 (GeneID 80349) | SID315459770 | -1.73 (active) |
| SKIC8 (GeneID 80349) | SID315459770 | -1.87 (active) |
| CBLN3 (GeneID 643866) | SID315465086 | 0.72 |
| CBLN3 (GeneID 643866) | SID315465086 | 3.3 (active) |
| CBLN3 (GeneID 643866) | SID315465086 | 0.43 |
| CBLN3 (GeneID 643866) | SID315465086 | 0.61 |
| NAA60 (GeneID 79903) | SID315459553 | -0.94 |
| NAA60 (GeneID 79903) | SID315459553 | -0.56 |
| NAA60 (GeneID 79903) | SID315459553 | -0.58 |
| NAA60 (GeneID 79903) | SID315459553 | -0.68 |
| DPP10 (GeneID 57628) | SID315458512 | 0.96 |
| DPP10 (GeneID 57628) | SID315458512 | 0.32 |
| DPP10 (GeneID 57628) | SID315458512 | -0.02 |
| DPP10 (GeneID 57628) | SID315458512 | 0.1 |
| YJU2 (GeneID 55702) | SID315457784 | -1.26 |
| YJU2 (GeneID 55702) | SID315457784 | -0.71 |
| YJU2 (GeneID 55702) | SID315457784 | -1.08 |
| YJU2 (GeneID 55702) | SID315457784 | -0.93 |
| ZNF19 (GeneID 7567) | SID315452202 | -1.51 (active) |
| ZNF19 (GeneID 7567) | SID315452202 | -1.45 |
| ZNF19 (GeneID 7567) | SID315452202 | -1.23 |
| ZNF19 (GeneID 7567) | SID315452202 | -1.49 |
| TRIM49 (GeneID 57093) | SID315458252 | 1.53 |
| TRIM49 (GeneID 57093) | SID315458252 | -2.36 (active) |
| TRIM49 (GeneID 57093) | SID315458252 | -0.86 |
| TRIM49 (GeneID 57093) | SID315458252 | 0.02 |
| SNAI2 (GeneID 6591) | SID315451522 | 1.28 |
| SNAI2 (GeneID 6591) | SID315451522 | 2.26 |
| SNAI2 (GeneID 6591) | SID315451522 | 1.39 |
| SNAI2 (GeneID 6591) | SID315451522 | 0.96 |
| IGFALS (GeneID 3483) | SID315449433 | -0.13 |
| IGFALS (GeneID 3483) | SID315449433 | 0.4 |
| IGFALS (GeneID 3483) | SID315449433 | 0.35 |
| IGFALS (GeneID 3483) | SID315449433 | 0.85 |
| CPA2 (GeneID 1358) | SID315448061 | 1.41 |
| CPA2 (GeneID 1358) | SID315448061 | 0.22 |
| CPA2 (GeneID 1358) | SID315448061 | 1.05 |
| CPA2 (GeneID 1358) | SID315448061 | -0.1 |
| KRTAP17-1 (GeneID 83902) | SID315460128 | 2.39 |
| KRTAP17-1 (GeneID 83902) | SID315460128 | 1.2 |
| KRTAP17-1 (GeneID 83902) | SID315460128 | 2.83 (active) |
| KRTAP17-1 (GeneID 83902) | SID315460128 | 1.02 |
| KRT16 (GeneID 3868) | SID315449699 | 2.14 |
| KRT16 (GeneID 3868) | SID315449699 | 1.88 |
| KRT16 (GeneID 3868) | SID315449699 | 2.43 |
| KRT16 (GeneID 3868) | SID315449699 | 0.69 |
| PLPPR2 (GeneID 64748) | SID315458966 | -2.12 (active) |
| PLPPR2 (GeneID 64748) | SID315458966 | -1.85 (active) |
| PLPPR2 (GeneID 64748) | SID315458966 | -2.07 (active) |
| CCDC149 (GeneID 91050) | SID315460880 | 2.5 |
| CCDC149 (GeneID 91050) | SID315460880 | 1.71 |
| CCDC149 (GeneID 91050) | SID315460880 | 1.23 |
| CCDC149 (GeneID 91050) | SID315460880 | 1.04 |
| PCLAF (GeneID 9768) | SID315453549 | -0.37 |
| PCLAF (GeneID 9768) | SID315453549 | -0.31 |
| PCLAF (GeneID 9768) | SID315453549 | 0.84 |
| PCLAF (GeneID 9768) | SID315453549 | 0.75 |
| CENPX (GeneID 201254) | SID315463070 | 0.82 |
| CENPX (GeneID 201254) | SID315463070 | 0.24 |
| CENPX (GeneID 201254) | SID315463070 | 0.72 |
| CENPX (GeneID 201254) | SID315463070 | -0.15 |
| RBPJ (GeneID 3516) | SID315449444 | -1.11 |
| RBPJ (GeneID 3516) | SID315449444 | -1.12 |
| RBPJ (GeneID 3516) | SID315449444 | -1.6 (active) |
| RBPJ (GeneID 3516) | SID315449444 | -0.91 |
| ARLN (GeneID 401152) | SID315464774 | -0.8 |
| ARLN (GeneID 401152) | SID315464774 | 0.34 |
| ARLN (GeneID 401152) | SID315464774 | 0.62 |
| ARLN (GeneID 401152) | SID315464774 | 1.4 |
| PHF12 (GeneID 57649) | SID315458524 | -1.39 |
| PHF12 (GeneID 57649) | SID315458524 | -1.77 (active) |
| PHF12 (GeneID 57649) | SID315458524 | -0.5 |
| PHF12 (GeneID 57649) | SID315458524 | -0.49 |
| GFUS (GeneID 7264) | SID315451997 | 0.4 |
| GFUS (GeneID 7264) | SID315451997 | 1.19 |
| GFUS (GeneID 7264) | SID315451997 | 0.77 |
| GFUS (GeneID 7264) | SID315451997 | 1.04 |
| PRR14L (GeneID 253143) | SID315463412 | -0.19 |
| PRR14L (GeneID 253143) | SID315463412 | 0.59 |
| PRR14L (GeneID 253143) | SID315463412 | -0.67 |
| PRR14L (GeneID 253143) | SID315463412 | 1.82 |
| TPSG1 (GeneID 25823) | SID315455488 | 1.7 |
| TPSG1 (GeneID 25823) | SID315455488 | 0.75 |
| TPSG1 (GeneID 25823) | SID315455488 | 2.1 |
| TPSG1 (GeneID 25823) | SID315455488 | 1.78 |
| JMJD8 (GeneID 339123) | SID315464013 | 0.84 |
| JMJD8 (GeneID 339123) | SID315464013 | 0.05 |
| JMJD8 (GeneID 339123) | SID315464013 | 0.72 |
| JMJD8 (GeneID 339123) | SID315464013 | 0.22 |

No new results follow: an excerpt of the list.
| gene symbol | PubChem SID | TNF reporter robust z-score |
| --- | --- | --- |
| CENPX (GeneID 201254) | SID315463070 | 0.82 |
| CENPX (GeneID 201254) | SID315463070 | 0.24 |
| CENPX (GeneID 201254) | SID315463070 | 0.72 |
| CENPX (GeneID 201254) | SID315463070 | -0.15 |
| RBPJ (GeneID 3516) | SID315449444 | -1.11 |
| RBPJ (GeneID 3516) | SID315449444 | -1.12 |
| RBPJ (GeneID 3516) | SID315449444 | -1.6 (active) |
| RBPJ (GeneID 3516) | SID315449444 | -0.91 |
| ARLN (GeneID 401152) | SID315464774 | -0.8 |
| ARLN (GeneID 401152) | SID315464774 | 0.34 |
| ARLN (GeneID 401152) | SID315464774 | 0.62 |
| ARLN (GeneID 401152) | SID315464774 | 1.4 |
| PHF12 (GeneID 57649) | SID315458524 | -1.39 |
| PHF12 (GeneID 57649) | SID315458524 | -1.77 (active) |
| PHF12 (GeneID 57649) | SID315458524 | -0.5 |
| PHF12 (GeneID 57649) | SID315458524 | -0.49 |
